Sequences of proteins named here, by UniProt entry; tags and fusion partners are left off. A change or cut given only in a name is not applied to a line headed by its entry.
UniProt Q96P20: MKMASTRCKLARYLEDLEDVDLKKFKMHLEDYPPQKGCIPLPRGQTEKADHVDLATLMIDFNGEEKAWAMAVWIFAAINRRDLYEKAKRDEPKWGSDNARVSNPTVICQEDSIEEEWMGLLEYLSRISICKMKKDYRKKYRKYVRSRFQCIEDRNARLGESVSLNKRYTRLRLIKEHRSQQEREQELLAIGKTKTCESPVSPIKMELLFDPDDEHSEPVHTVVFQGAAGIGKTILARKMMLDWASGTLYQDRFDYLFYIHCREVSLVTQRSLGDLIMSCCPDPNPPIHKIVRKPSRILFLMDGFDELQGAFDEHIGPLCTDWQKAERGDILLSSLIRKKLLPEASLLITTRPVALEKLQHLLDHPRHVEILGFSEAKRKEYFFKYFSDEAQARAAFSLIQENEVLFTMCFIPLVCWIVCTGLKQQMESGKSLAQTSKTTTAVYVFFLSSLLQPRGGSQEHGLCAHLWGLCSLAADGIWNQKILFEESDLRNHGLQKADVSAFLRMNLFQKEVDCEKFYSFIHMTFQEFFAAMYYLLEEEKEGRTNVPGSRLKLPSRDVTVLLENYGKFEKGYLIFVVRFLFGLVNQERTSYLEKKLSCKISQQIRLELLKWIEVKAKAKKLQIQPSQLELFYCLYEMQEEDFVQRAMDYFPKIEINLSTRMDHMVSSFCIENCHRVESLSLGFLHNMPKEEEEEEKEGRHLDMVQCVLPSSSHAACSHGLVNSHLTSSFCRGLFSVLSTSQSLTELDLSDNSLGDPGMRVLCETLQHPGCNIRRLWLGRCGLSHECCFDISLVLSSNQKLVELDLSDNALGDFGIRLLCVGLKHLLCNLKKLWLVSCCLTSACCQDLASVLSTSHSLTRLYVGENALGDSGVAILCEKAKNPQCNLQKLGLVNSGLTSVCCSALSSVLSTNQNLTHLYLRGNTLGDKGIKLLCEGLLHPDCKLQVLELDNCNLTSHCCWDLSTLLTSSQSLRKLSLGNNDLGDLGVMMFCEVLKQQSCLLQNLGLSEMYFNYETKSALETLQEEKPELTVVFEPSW
UniProt P68363: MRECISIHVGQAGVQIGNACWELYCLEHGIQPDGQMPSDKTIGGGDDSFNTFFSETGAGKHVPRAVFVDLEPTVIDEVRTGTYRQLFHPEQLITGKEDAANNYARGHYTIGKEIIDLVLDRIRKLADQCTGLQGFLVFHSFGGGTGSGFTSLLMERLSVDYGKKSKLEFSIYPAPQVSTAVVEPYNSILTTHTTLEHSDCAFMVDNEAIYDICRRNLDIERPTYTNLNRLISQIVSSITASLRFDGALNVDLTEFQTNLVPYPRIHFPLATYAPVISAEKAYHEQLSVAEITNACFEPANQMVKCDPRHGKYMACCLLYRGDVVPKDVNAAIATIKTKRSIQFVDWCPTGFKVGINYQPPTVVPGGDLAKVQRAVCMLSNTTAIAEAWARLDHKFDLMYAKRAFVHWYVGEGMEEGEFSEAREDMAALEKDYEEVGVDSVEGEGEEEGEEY
UniProt Q9BQE3: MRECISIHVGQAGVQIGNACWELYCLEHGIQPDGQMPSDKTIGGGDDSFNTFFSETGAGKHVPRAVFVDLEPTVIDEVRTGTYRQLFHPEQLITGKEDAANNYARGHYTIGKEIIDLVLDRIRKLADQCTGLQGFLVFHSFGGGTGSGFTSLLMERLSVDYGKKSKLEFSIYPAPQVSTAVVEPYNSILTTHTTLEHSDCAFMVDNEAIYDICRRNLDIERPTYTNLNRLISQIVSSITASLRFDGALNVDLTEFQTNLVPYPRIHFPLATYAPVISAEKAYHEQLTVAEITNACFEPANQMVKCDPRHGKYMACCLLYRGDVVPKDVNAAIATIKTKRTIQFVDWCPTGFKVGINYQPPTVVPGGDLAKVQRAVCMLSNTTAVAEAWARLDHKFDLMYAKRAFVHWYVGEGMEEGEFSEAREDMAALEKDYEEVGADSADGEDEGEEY
UniProt P68104: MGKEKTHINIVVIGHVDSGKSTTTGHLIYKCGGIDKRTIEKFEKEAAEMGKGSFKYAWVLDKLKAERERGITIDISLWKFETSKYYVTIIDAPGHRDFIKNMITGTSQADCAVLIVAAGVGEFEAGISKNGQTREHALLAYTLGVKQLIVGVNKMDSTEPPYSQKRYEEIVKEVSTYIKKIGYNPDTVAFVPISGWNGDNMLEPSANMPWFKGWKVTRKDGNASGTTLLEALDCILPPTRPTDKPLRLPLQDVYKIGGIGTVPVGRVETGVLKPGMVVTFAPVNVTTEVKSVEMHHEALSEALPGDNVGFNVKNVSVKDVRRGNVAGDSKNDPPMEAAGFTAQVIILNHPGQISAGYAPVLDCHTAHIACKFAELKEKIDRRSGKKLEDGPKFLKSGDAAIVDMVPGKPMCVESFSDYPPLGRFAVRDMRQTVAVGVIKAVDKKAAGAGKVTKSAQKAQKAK
UniProt Q5VTE0: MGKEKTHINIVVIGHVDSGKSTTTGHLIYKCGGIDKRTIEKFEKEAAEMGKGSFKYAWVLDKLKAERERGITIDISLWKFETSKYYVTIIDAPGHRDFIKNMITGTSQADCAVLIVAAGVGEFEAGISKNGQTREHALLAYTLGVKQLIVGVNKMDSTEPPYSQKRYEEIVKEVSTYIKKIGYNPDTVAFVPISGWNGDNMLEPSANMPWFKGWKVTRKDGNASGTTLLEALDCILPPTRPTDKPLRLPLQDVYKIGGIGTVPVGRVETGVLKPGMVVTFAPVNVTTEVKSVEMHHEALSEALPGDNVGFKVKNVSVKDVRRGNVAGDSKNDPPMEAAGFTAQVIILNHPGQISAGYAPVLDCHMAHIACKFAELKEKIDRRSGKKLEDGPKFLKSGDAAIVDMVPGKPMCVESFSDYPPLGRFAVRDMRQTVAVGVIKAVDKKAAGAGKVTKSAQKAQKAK
UniProt P07477: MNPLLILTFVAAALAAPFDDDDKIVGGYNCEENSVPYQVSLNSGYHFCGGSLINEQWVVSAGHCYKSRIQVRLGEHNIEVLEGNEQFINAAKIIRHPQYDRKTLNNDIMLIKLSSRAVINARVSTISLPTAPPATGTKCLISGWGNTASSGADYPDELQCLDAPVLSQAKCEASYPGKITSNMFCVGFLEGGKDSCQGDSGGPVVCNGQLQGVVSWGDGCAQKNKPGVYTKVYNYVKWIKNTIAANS
UniProt P31943: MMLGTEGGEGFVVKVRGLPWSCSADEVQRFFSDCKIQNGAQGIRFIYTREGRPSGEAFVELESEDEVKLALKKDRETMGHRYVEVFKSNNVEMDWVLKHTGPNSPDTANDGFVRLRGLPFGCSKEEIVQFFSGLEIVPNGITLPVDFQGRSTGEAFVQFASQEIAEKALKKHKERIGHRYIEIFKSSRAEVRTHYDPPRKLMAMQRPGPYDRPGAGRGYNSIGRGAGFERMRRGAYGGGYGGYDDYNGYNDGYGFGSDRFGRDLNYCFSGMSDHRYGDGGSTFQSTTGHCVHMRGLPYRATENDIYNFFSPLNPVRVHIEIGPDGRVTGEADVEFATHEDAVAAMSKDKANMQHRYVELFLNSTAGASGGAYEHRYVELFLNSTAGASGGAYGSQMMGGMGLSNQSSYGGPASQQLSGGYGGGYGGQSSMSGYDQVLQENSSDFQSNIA
UniProt P0DMV8: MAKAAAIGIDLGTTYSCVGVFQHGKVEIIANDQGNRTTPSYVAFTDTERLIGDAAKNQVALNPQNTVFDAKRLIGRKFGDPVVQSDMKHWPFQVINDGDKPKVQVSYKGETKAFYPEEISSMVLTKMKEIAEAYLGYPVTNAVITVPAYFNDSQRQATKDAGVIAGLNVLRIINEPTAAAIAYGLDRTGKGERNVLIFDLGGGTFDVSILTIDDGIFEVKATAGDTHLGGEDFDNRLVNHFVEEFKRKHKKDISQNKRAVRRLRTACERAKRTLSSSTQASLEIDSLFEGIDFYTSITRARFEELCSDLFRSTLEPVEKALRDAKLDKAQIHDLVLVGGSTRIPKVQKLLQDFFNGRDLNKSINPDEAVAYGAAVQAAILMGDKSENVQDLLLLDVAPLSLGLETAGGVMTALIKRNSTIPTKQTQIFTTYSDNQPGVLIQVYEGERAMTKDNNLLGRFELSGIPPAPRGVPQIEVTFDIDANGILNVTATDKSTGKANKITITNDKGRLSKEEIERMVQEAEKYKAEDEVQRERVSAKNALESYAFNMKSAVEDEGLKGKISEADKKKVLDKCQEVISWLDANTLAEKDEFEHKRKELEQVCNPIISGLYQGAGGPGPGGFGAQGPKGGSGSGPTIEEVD
UniProt P04406: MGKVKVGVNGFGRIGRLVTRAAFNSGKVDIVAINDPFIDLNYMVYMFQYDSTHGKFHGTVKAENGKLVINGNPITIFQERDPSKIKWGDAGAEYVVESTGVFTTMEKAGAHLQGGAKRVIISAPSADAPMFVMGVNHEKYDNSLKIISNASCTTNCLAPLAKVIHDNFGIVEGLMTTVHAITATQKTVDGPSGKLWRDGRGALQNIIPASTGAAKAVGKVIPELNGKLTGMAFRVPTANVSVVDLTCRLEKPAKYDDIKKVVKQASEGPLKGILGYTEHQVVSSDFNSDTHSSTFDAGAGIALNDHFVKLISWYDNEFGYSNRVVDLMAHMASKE
UniProt P13647: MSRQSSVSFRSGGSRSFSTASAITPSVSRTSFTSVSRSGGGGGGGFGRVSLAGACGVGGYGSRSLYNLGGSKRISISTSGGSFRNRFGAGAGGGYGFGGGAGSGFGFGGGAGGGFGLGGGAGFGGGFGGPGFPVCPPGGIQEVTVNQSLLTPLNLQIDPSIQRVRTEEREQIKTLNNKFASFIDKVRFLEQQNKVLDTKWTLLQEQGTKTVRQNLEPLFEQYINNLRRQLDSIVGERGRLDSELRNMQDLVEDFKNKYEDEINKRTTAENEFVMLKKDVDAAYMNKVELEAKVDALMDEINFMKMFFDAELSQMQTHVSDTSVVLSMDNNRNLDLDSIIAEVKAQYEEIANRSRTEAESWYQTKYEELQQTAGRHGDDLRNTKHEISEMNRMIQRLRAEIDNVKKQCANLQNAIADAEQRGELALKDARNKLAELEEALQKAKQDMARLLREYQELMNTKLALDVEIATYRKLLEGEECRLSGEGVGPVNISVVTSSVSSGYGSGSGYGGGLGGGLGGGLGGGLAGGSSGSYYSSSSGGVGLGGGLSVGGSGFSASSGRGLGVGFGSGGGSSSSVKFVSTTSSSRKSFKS
UniProt P04264: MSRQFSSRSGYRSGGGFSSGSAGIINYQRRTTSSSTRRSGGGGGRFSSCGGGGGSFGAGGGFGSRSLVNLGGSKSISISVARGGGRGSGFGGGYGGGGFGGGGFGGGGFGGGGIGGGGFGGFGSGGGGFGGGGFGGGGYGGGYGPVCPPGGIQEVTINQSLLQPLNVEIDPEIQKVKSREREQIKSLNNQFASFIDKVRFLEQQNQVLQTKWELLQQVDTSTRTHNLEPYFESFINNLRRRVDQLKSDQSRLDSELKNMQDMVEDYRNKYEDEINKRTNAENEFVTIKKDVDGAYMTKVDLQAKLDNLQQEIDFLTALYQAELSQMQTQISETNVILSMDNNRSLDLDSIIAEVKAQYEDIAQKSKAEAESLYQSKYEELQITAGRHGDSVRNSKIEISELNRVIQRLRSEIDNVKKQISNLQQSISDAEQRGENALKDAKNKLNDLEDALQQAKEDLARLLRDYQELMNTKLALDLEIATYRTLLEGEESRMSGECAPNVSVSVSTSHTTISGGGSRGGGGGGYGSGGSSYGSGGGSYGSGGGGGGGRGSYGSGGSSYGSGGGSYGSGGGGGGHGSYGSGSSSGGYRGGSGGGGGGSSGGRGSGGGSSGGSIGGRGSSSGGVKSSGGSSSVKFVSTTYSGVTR
UniProt P13645: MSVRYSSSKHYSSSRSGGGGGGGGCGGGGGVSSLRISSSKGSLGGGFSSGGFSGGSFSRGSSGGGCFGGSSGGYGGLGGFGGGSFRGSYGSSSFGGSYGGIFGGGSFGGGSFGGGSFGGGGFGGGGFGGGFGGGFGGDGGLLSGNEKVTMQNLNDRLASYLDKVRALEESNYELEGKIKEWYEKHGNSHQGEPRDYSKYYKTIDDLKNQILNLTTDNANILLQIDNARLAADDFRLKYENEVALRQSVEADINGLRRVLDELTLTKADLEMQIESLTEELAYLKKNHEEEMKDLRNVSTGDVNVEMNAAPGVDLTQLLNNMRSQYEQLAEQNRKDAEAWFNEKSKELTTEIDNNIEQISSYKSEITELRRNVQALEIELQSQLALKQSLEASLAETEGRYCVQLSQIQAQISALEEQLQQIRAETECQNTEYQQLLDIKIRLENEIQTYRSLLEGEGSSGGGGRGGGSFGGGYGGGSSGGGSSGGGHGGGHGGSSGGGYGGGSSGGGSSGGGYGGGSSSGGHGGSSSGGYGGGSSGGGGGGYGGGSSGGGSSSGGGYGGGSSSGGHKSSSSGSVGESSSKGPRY

According to article PMC11067542:

Molecular target: NACHT, LRR and PYD domains-containing protein 3 (NLRP3), bait of the mass spectrometry screen (human) (UniProt Q96P20)
Assay: affinity purification with mass spectrometry; proteins interacting with NLRP3 in HEK293T cells screened by mass spectrometry (schematic in Fig. 1A)

Molecule | binding
Phosphate carrier protein, mitochondrial (SLC25A3), found with NLRP3 in HEK293T cells (protein, UniProt Q00325 50-362) AVEEQYSCDYGSGRFFILCGLGGIISCGTTHTALVPLDLVKCRMQVDPQKYKGIFNGFSVTLKEDGVRGLAKGWAPTFLGYSMQGLCKFGFYEVFKVLYSNMLGEENTYLWRTSLYLAASASAEFFADIALAPMEAAKVRIQTQPGYANTLRDAAPKMYKEEGLKAFYKGVAPLWMRQIPYTMMKFACFERTVEALYKFVVPKPRSECSKPEQLVVTFVAGYIAGVFCAIVSHPADSVVSVLNKEKGSSASLVLKRLGFKGVWKGLFARIIMIGTLTALQWFIYDSVKVYFRLPRPPPPEMPESLKKKLGLTQ | binds
Keratin, type I cytoskeletal 9 (protein, UniProt P35527 1-623) MSCRQFSSSYLSRSGGGGGGGLGSGGSIRSSYSRFSSSGGGGGGGRFSSSSGYGGGSSRVCGRGGGGSFGYSYGGGSGGGFSASSLGGGFGGGSRGFGGASGGGYSSSGGFGGGFGGGSGGGFGGGYGSGFGGFGGFGGGAGGGDGGILTANEKSTMQELNSRLASYLDKVQALEEANNDLENKIQDWYDKKGPAAIQKNYSPYYNTIDDLKDQIVDLTVGNNKTLLDIDNTRMTLDDFRIKFEMEQNLRQGVDADINGLRQVLDNLTMEKSDLEMQYETLQEELMALKKNHKEEMSQLTGQNSGDVNVEINVAPGKDLTKTLNDMRQEYEQLIAKNRKDIENQYETQITQIEHEVSSSGQEVQSSAKEVTQLRHGVQELEIELQSQLSKKAALEKSLEDTKNRYCGQLQMIQEQISNLEAQITDVRQEIECQNQEYSLLLSIKMRLEKEIETYHNLLEGGQEDFESSGAGKIGLGGRGGSGGSYGRGSRGGSGGSYGGGGSGGGYGGGSGSRGGSGGSYGGGSGSGGGSGGGYGGGSGGGHSGGSGGGHSGGSGGNYGGGSGSGGGSGGGYGGGSGSRGGSGGSHGGGSGFGGESGGSYGGGEEASGSGGGYGGGSGKSSHS | binds

Molecular target: NACHT, LRR and PYD domains-containing protein 3 (NLRP3), bait of the mass spectrometry screen (human) (UniProt Q96P20)
Assay: as above
Remark: another data set of the same source

Molecule | binding
Tubulin alpha-1B chain (from UniProt P68363 1-451) | binds
Transmembrane protease serine 13 (from UniProt Q9BYE2 1-586) (enzyme) | binds
Tubulin alpha-1C chain (from UniProt Q9BQE3 1-449) | binds
Elongation factor 1-alpha 2 (EEF1A2), found with NLRP3 in HEK293T cells (from UniProt Q05639 1-463) | binds
Elongation factor 1-alpha 1 (EEF1A1), found with NLRP3 in HEK293T cells (from UniProt P68104 1-462) | binds
Putative elongation factor 1-alpha-like 3 (from UniProt Q5VTE0 1-462) | binds
Trypsin-1 (from UniProt P07477) (enzyme) | binds
Heat shock cognate 71 kDa protein (from UniProt P11142 1-646) | binds
Heat shock 70 kDa protein 1-like (from UniProt P34931 1-641) | binds
Heterogeneous nuclear ribonucleoprotein H (from UniProt P31943 1-449) | binds
Heat shock 70 kDa protein 1A (from UniProt P0DMV8 1-641) | binds
Keratin, type II cytoskeletal 2 epidermal (from UniProt P35908 1-639) | binds
Tubulin beta chain (from UniProt P07437 1-444) | binds
Glyceraldehyde-3-phosphate dehydrogenase (from UniProt P04406 1-335) (enzyme) | binds
Keratin, type II cytoskeletal 5 (from UniProt P13647 1-590) | binds
Stress-70 protein, mitochondrial (from UniProt P38646 47-679) | binds
Keratin, type II cytoskeletal 1 (from UniProt P04264 1-644) | binds
Keratin, type I cytoskeletal 10 (from UniProt P13645 1-584) | binds

Results are given in words; binding and its absence hold for the method and conditions named. In cells and extracts the contact can be indirect. A yes stands for co-enrichment or nearness to the bait. Other partners may have been found.
